Assay results reported in patent US9221835B2, “Spirocyclic derivatives as antiparasitic agents” (Zoetis Services LLC, priority 2012, dated 2015).
Some entries share one result that the patent states for a list of compounds.

Tested on: Soft Tick (Ornithidorus turicata)
Assay: Soft Tick (Ornithidorus turicata) Blood Feed Assay
Type: in vivo
Details: nymph stage ticks fed on treated citrated bovine blood; paralysis and/or death observed at approximately 24, 48 and 72 hours
Experimental: Soft Tick (Ornithidorus turicata) Blood Feed Assay
Compounds of the present invention were dissolved in dimethylsulfoxide (DMSO) and aliquots added to citrated bovine blood in a membrane covered Petri dish. The Petri dish is placed on a warming tray. Approximately 5 nymph stage ticks are placed onto the membrane, covered, and left to feed. Fed ticks are removed and placed into a Petri dish with sand. […] Endpoint data was recorded as a 100% lethal dose (LD^100) in μg/mL.

## CS(=O)(=O)CC(=O)N1CC2(C1)OCc1cc(C3=NOC(c4cc(Cl)c(F)c(Cl)c4)(C(F)(F)F)O3)ccc12 (centres unmarked) [Example 27, 1-(5′-(5-(3,5-dichloro-4-fluorophenyl)-5-(trifluoromethyl)-1,4,2-dioxazol-3-yl)-3′H-spiro[azetidine-3,1′-isobenzofuran]-1-yl)-2-(methylsulfonyl)ethanone]
  100% lethal dose (LD100): ≥ 0.3 µg/mL

## CS(=O)(=O)CC(=O)N1CC2(C1)OCc1cc(C3=NOC(c4cc(Cl)cc(Cl)c4)(C(F)(F)F)O3)ccc12 (centres unmarked) [Example 29, 1-(5-(5-(3,5-dichlorophenyl)-5-(trifluoromethyl)-1,4,2-dioxazol-3-yl)-3′H-spiro[azetidine-3,1′-isobenzofuran]-1-yl)-2-(methylsulfonyl)ethanone]
  100% lethal dose (LD100): ≥ 0.3 µg/mL
